This assay is described as follows: qHTS Assay for Lipid Storage Modulators in Drosophila S3 Cells.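 On cell number change: cells counted by Cell Tracker Red CMTPX staining in the red channel.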 The following applies: BODIPY lipid droplet fluorescence, 18-24 h; for cell number change: measured here: cell count max response, cells fed with added oleic acid. The procedure, abridged: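 Drosophila S3 cells loaded with oleic acid (400 uM, as added) and compounds at several concentrations; lipid droplets imaged by 488-nm laser-scanning cytometry, 500–530 nm intensity and object ratio to cell channel. Percent activity normalized to 20 uM Triacsin C.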
In general terms: qHTS replaces the single test concentration by a dilution series.

The mark [1] stands for this setting: measured here: cell number channel AC50, cells fed with added oleic acid.
Where [2] appears, read: measured here: lipid fluorescence (Fed channel) AC50, cells fed with added oleic acid.

The other results are listed elsewhere or left out. Shown are side measurements of this screen, not its main read-out; they come without a call. Most of these compounds were active or inconclusive in the main read-out, so they are no random draw. Words in brackets tell the shape of the fitted curve; partial curves, single points and poor fits give uncertain potencies.

One may read the AC50 as the concentration at which the activity in the assay is half-maximal.

Regarding `O=C1NC(=O)C2(COC(c3cccc([N+](=O)[O-])c3)OC2)S1` (stereo unspecified), the cell number change is -7.04%. Also, the concentration at half-maximal activity (AC50) under setting [1] was 0.259 µM [falling, full curve, poor fit]. Further, the AC50 under setting [2] was 0.731 µM [falling, full curve].

For the compound `COc1ccccc1N1CCN(C(=O)c2cccc(C(=O)N3CCN(c4ccccc4OC)CC3)c2)CC1`, the cell number change is 15.5%.

For `Cc1cc(/C=N/n2cnnc2)c(C)n1-c1ccc(OCc2ccc(Cl)cc2)cc1`, the cell number change is -58%. Moreover, the AC50 under setting [1] is 23.1 µM [falling, partial curve]. For the same compound, under setting [2], the AC50 is 29.1 µM [falling, single point].

On to `FC(F)(F)Oc1ccc(NC(=S)Nc2ccccc2N2CCOCC2)cc1`, for which the cell number change turned out to be 2.27%. The AC50 under setting [2] was 6.51 µM [rising, single point].

Regarding `COc1ccccc1C(=O)NC(=O)COC(=O)c1ccc(Br)o1`, the cell number change was found to be 6.02%.

As to `O=C(CSC(=S)N1CCOCC1)Nc1nc(-c2ccccc2)c(-c2ccccc2)o1`, the cell number change is -22.8%. Moreover, under setting [2], the half-maximal activity concentration (AC50) was 6.51 µM [falling, partial curve].

For `COc1c(C(O)CC(C)C)ccc2c1C(=O)OCc1cc(C)cc(O)c1O2` (stereo unspecified), the cell number change was -9%. For the same compound, under setting [2], the AC50 was 0.291 µM [falling, full curve, poor fit].

Regarding `CC(=O)NC(C)c1ccc(C(=O)CSc2nnc(C3CC3)n2C2CC2)cc1` (stereo unspecified), the cell number change is -2.73%. In addition, the concentration at half-maximal activity (AC50) under setting [2] is 3.26 µM [rising, single point].

`COc1cc(OC)cc(C(=O)Nc2ccc(Nc3ccccc3)cc2)c1`: the cell number change is -3.88%. Moreover, under setting [2], the AC50 was 29.1 µM [rising, single point].

With `c1ccc(Cn2nnc3c(N4CCCC4)ncnc32)cc1`, the cell number change is -0.34%.

`O=C(Nc1ccccc1)C1=C[C@@H](c2ccccc2)C[C@@H](OCc2ccc(CO)cc2)O1`: the cell number change was 26.2%. For the same compound, under setting [2], the AC50 is 29.1 µM [rising, single point].

As for `COc1ccc(-c2nnc(SCC(=O)NC3CCCCC3)n2N)cc1`, the cell number change was 2.01%.

Take `Cc1cc(=O)oc2c3c(ccc12)OC/C3=N/N`: the AC50 is 1.03 µM [rising, partial curve] under setting [1] and 0.731 µM [rising, single point] under setting [2].

For the compound `CCOC(=O)N1CCN(C(=O)CN(c2cccc(OC)c2)S(C)(=O)=O)CC1`, the cell number change was -7.96%. In addition, the AC50 under setting [2] is 0.651 µM [falling, full curve].

As for `Cc1cccnc1Nc1nc(-c2ccc(O)c(O)c2)cs1`, the cell number change was -149%. Moreover, the AC50 under setting [1] is 20.6 µM [falling, single point].

`CCN(CC(=O)Nc1cc(Cl)ccc1C)C(=O)COc1ccccc1F`: the cell number change was -9.04%. For the same compound, under setting [2], the half-maximal activity concentration (AC50) is 6.51 µM [rising, partial curve, poor fit].

With `CCC(=O)N1CCN(c2ccccc2NC(=O)c2cccs2)CC1`, the cell number change is -13.9%. Also, the AC50 under setting [2] was 29.1 µM [falling, single point].

Regarding `Cc1cccc(C)c1OCC(O)CNC(C)c1ccccc1` (stereo unspecified), the concentration at half-maximal activity (AC50) under setting [2] is 6.51 µM [falling, single point].

For the compound `Cc1ccc2oc(C(=O)N3CCN(CC(=O)NC(C)C)CC3)c(C)c2c1`, the cell number change worked out at 8.39%. In addition, the AC50 under setting [2] was 29.1 µM [rising, single point].

With `Cc1cccc2[nH]c(CN(C)C(=O)C3CCC(=O)N(C4CC4)C3)nc12` (stereo unspecified), the cell number change came to 11.8%. Besides, the AC50 under setting [2] was 29.1 µM [rising, single point].

`CSc1nc2ccccc2n1CC(=O)Nc1cc(C(F)(F)F)ccc1N1CCOCC1`: under setting [1], the concentration at half-maximal activity (AC50) was 2.06 µM [rising, partial curve].

As for `CC(C)(C)C(=O)Nc1ccc(C(=O)Nc2cccc(Oc3ccc(C(=O)O)c(C(=O)O)c3)c2)cc1`, the cell number change was -24.3%. The concentration at half-maximal activity (AC50) under setting [2] was 9.2 µM [rising, partial curve].

Turning to `CC12CCC(C(=O)NNC(=O)c3ccc(Br)cc3)(OC1=O)C2(C)C` (stereo unspecified), under setting [2], the AC50 was 29.1 µM [rising, single point].

Turning to `O=C(Nc1ccc(Oc2ccccc2)cc1)c1ccc(Cn2c(=O)[nH]c3ccsc3c2=O)cc1`, the cell number change is -31.7%. Moreover, the AC50 under setting [1] was 8.2 µM [falling, partial curve]. In addition, the AC50 under setting [2] is 6.51 µM [falling, single point].

Consider `Cc1c(NC(=O)C(C)OC(=O)CC2CC3CCC2C3)c(=O)n(-c2ccccc2)n1C` (stereo unspecified), for which the cell number change is -28.8%. Moreover, the half-maximal activity concentration (AC50) under setting [2] is 29.1 µM [falling, single point].

On to `Cc1ccc(S(=O)(=O)/C(C#N)=C/c2c(N3CCN(C)CC3)nc3ccccn3c2=O)cc1`, for which the cell number change turned out to be 0.779%. Further, under setting [2], the AC50 is 6.51 µM [falling, single point].

In the case of `COc1ccc(/C(N)=N/OC(=O)Cc2ccc(C)cc2)cc1OC`, the cell number change was -2.54%.

For the compound `O=C(Cn1nnc(-c2ccc(F)cc2)n1)OCC(=O)c1ccccc1`, the AC50 under setting [1] is 0.731 µM [falling, full curve] and the AC50 under setting [2] is 6.51 µM [falling, partial curve, poor fit].

For `CC(=O)c1cn(CC(=O)NCc2ccc3c(c2)OCO3)c2ccccc12`, the cell number change is -25.1%. For the same compound, the concentration at half-maximal activity (AC50) under setting [2] was 11.6 µM [falling, partial curve, poor fit].

With `Nc1[nH]n(-c2ccccc2)c(=O)c1N=Nc1ccccc1`, the cell number change is -41.5%. Further, the AC50 under setting [1] was 29.1 µM [falling, single point]. Further, the concentration at half-maximal activity (AC50) under setting [2] is 29.1 µM [falling, single point].

As to `Cc1ccc(C(=O)c2cc(C)sc2N)cc1`, the cell number change is -32%. For the same compound, under setting [1], the AC50 is 29.1 µM [falling, single point].

For `COC(=O)C(CC(=O)c1ccccc1)CC(=O)c1ccccc1`, the cell number change turned out to be 10.6%.

Take `CCCn1c(=O)n(CC(=O)NCC2CCCO2)c(=O)c2c3c(sc21)COC(C)(C)C3` (stereo unspecified): the cell number change amounted to 6.27%. The AC50 under setting [2] was 29.1 µM [rising, single point].

Turning to `COCCCN(C(=S)NC(=O)c1ccc(Br)cc1)c1c(N)n(Cc2ccccc2)c(=O)[nH]c1=O`, the cell number change came to 24.1%. In addition, the AC50 under setting [2] is 5.8 µM [falling, partial curve, poor fit].

For the compound `CCOC(=O)c1ccc(NC(=O)c2ccccc2)cc1`, the cell number change is 2.51%. The AC50 under setting [2] is 18.4 µM [rising, single point].

Consider `COc1cccc(OCCOc2cccc(/C=N/n3cnnc3)c2)c1`, for which the cell number change worked out at 77.5%. Moreover, the AC50 under setting [1] was 9.2 µM [rising, partial curve, poor fit]. Besides, the AC50 under setting [2] was 13 µM [rising, partial curve].

Regarding `CCN(CC)CCn1c(NCc2nc3ccccc3n2Cc2ccccc2)nc2ccccc21`, the cell number change is -0.59%.

As for `COC(=O)c1nc2n(n1)C(c1cc(OC)ccc1OC)C(C(=O)OC1CCCCC1)=C(C)N2` (stereo unspecified), the cell number change is -17%. The AC50 under setting [2] was 29.1 µM [falling, single point].

The values above are taken from PubChem BioAssay AID2685 (National Center for Advancing Translational Sciences (NCATS), 2010).
